{"source": "patent US20220273660A1", "about": "“MEK INHIBITOR FOR TREATMENT OF STROKE” (EDVINCE AB, priority 2019, published 2022)", "system": "rat basilar arteries (contractile ETB receptors)", "assay": "48 h organ culture of basilar artery, S6c (ETB agonist)-induced contraction in wire myograph", "type": "cell-based", "conditions": "1 μM inhibitor, S6c contraction relative to 60 mM K+", "protocol": "Rats were sedated with O2/CO2 (30/70%) and sacrificed by decapitation. Brains were gently removed and chilled in a cold oxygenated buffer solution of the following composition: 119 mM NaCl, 4.6 mM KCl, 1.5 mM CaCl2, 1.2 mM MgCl2, 1.2 mM NaH2PO4, 15 mM NaHCO3 and 5.5 mM Glucose; pH 7.4. The basilar artery (BA) was carefully dissected from the brain in a physiological buffer solution followed by either OC (naïve animals) or directly mounted in a wire myograph (arteries from rats which has undergone surgical procedures). Segments were incubated for 48 hours at 37° C. in humidified 5% CO2/O2 in DMEM supplemented with streptomycin and penicillin with inhibitors or vehicle (DMSO). Culture media was changed after 24 hours. […]\nThe segments were equilibrated in physiological buffer aerated with 95% O2/5% CO2, pH of 7.4, temperature set at 37° C. and the wires were separated for isometric pretension at 2 Nm^−1. […] Endothelium function was evaluated with the addition of 5-HT (3.10^−7 M) followed by carbachol (10^−5 M). […]\nContractile responses of each segment were adjusted according to the length of the artery and are expressed as mN/mm (Nm^−1). […] All quantitative data is presented as mean±standard error of the mean (SEM), unless otherwise stated.", "note": "For at least one compound, name, drawing or mass did not settle the structure.", "data": [{"smiles": "Cn1cnc2c(F)c(Nc3ccc(Br)cc3Cl)c(C(=O)NOCCO)cc21", "note": "[selumetinib]", "values": [{"measurement": "inhibition of S6c-induced contraction (initial screening groups)", "result": "Some effect"}]}]}
